From publication doi:10.1101/2024.09.06.611148
No constants are given. Whether binding was seen depends on the method and setting. A result given as binding can be weak or reduced; the word gives no strength. Sequences can lack the tags named with a protein. For part of these data: In cells and extracts the contact can be indirect.

The chains behind the UniProt entries cited, without tags or fusion partners. Where a name states a change or a piece, a line headed by the entry shows the natural chain unless it says otherwise.
UniProt Q9FMI8: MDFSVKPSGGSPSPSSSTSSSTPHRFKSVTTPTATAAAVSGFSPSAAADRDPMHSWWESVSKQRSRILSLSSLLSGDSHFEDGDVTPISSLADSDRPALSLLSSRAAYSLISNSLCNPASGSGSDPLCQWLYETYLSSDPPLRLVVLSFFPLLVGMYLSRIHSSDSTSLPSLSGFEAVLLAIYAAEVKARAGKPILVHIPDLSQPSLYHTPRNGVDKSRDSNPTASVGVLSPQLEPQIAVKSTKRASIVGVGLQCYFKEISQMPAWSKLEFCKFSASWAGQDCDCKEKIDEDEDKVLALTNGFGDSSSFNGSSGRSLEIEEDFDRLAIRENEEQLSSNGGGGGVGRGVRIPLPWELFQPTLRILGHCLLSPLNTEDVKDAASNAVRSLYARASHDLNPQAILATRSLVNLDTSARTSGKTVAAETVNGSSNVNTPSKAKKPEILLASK

How the values were obtained:
[1] = molecular target: HYC2 (yeast two-hybrid fusion) (Arabidopsis thaliana) (UniProt Q9FMI8); test: two-hybrid
[2] = molecular target: HYC2-GFP (Arabidopsis thaliana); test: co-IP

Binder | binding [1] | binding [2]
SH3 domain-containing protein 2 (yeast two-hybrid fusion) (protein, UniProt Q8VWF1 1-368) MDAIRKQASRLREQVARQQQAVFKQFGGGGYGSGLADEAELNQHQKLEKLYISTRAAKHYQRDIVRGVEGYIVTGSKQVEIGTKLSEDSRKYGSENTCTNGNVLTRAALNYGRARAQMEKERGNMLKALGTQVAEPLRAMVLGAPLEDARHLAQRYDRMRQEAEAQATEVARRQAKARESQGNPDILMKLESAEAKLHDLKSNMTILGKEAASALASVEDQQQKLTLERLLSMVESERAYHQRVLQILDQLEGEMVSERQRIEAPSTPSSADSMPPPPSYEEANGVFASQMHDTSTDSMGYFLGEVLFPYHGVTDVELSLSTGEYVVVRKVTGSGWAEGECKGKAGWFPYGYIERRERVLASKVSEVF | binds weakly | –
SH3P2-FLAG (protein, UniProt Q8VWF1 1-368) MDAIRKQASRLREQVARQQQAVFKQFGGGGYGSGLADEAELNQHQKLEKLYISTRAAKHYQRDIVRGVEGYIVTGSKQVEIGTKLSEDSRKYGSENTCTNGNVLTRAALNYGRARAQMEKERGNMLKALGTQVAEPLRAMVLGAPLEDARHLAQRYDRMRQEAEAQATEVARRQAKARESQGNPDILMKLESAEAKLHDLKSNMTILGKEAASALASVEDQQQKLTLERLLSMVESERAYHQRVLQILDQLEGEMVSERQRIEAPSTPSSADSMPPPPSYEEANGVFASQMHDTSTDSMGYFLGEVLFPYHGVTDVELSLSTGEYVVVRKVTGSGWAEGECKGKAGWFPYGYIERRERVLASKVSEVF | – | binds
DRP1A-FLAG (protein, UniProt P42697 1-610) MENLISLVNKIQRACTALGDHGDSSALPTLWDSLPAIAVVGGQSSGKSSVLESIVGKDFLPRGSGIVTRRPLVLQLQKIDDGTREYAEFLHLPRKKFTDFAAVRKEIQDETDRETGRSKAISSVPIHLSIYSPNVVNLTLIDLPGLTKVAVDGQSDSIVKDIENMVRSYIEKPNCIILAISPANQDLATSDAIKISREVDPSGDRTFGVLTKIDLMDKGTDAVEILEGRSFKLKYPWVGVVNRSQADINKNVDMIAARKREREYFSNTTEYRHLANKMGSEHLAKMLSKHLERVIKSRIPGIQSLINKTVLELETELSRLGKPIAADAGGKLYSIMEICRLFDQIFKEHLDGVRAGGEKVYNVFDNQLPAALKRLQFDKQLAMDNIRKLVTEADGYQPHLIAPEQGYRRLIESSIVSIRGPAEASVDTVHAILKDLVHKSVNETVELKQYPALRVEVTNAAIESLDKMREGSKKATLQLVDMECSYLTVDFFRKLPQDVEKGGNPTHSIFDRYNDSYLRRIGSNVLSYVNMVCAGLRNSIPKSIVYCQVREAKRSLLDHFFAELGTMDMKRLSSLLNEDPAIMERRSAISKRLELYRAAQSEIDAVAWSK | – | binds
